Experimental data taken from US20040087623A1, “Pyrazole derivatives against tgf overexpression” (priority 2001, published 2004).
pIC50: −log10 of the molar value. Some of these results come from one statement about several compounds together. At least one structure is not confirmed: it was looked up by name or label, or the drawing left a doubt.

Legend:
[1] = target: T1, kinase domain of Alk5 (Homo sapiens, UniProt P36897); assay: Assay 2: Alk5 kinase autophosphorylation; format: biochemical; settings: 3 μM ATP, 37° C.
T1 construct: The protein (amino acids 162 to 503) was 6-His tagged in C-terminus; 6-His (C); made in house; host or cells: baculovirus/Sf9
T1 sequence (P36897 162-503): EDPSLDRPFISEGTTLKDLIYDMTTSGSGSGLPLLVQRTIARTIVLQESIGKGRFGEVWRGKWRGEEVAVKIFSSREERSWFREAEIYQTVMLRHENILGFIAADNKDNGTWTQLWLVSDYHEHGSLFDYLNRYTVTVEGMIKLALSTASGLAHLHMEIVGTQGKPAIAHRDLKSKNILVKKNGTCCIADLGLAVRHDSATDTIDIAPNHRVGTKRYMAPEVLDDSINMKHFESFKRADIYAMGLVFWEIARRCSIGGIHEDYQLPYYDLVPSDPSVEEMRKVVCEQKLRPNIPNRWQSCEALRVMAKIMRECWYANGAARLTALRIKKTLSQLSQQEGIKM

[2] = system: TGF-β signaling (PAI-1 promoter-luciferase in HepG2 cells); assay: Assay 1: inhibition of TGF-β induced PAI-1 promoter luciferase reporter in HepG2 cells; settings: read-out: IC50 value in Assay 1, PAI-1 promoter firefly luciferase, TGF-β 1 ng/mL

In the case of `CCN1CCN(c2ccc(-c3cc(-c4c[nH]nc4-c4ccccn4)ccn3)cc2)CC1` [Example 30, (1-Ethyl)-{4-[4-(3-pyridin-2-yl-1H-pyrazol-4-yl)pyridin-2-yl]-phenyl}-piperazine], the pIC50 [1] was no less than 6.00 and the pIC50 [2] was no less than 5.30.
In the case of `CN(c1ccc(-c2cc(-c3c[nH]nc3-c3ccccn3)ccn2)cc1)C1CCOCC1` [Example 31, (N-Methyl)-({4-[4-(3-pyridin-2-yl-1H-pyrazol-4-yl)pyridin-2-yl]-phenyl}-tetrahydropyran-4-yl)-amine], the pIC50 [1] was no less than 6.00 and the pIC50 [2] was no less than 5.30.
Compound `c1ccc(-c2n[nH]cc2-c2ccnc(-c3ccc(NC4CCOCC4)cc3)c2)nc1` [Example 32, ({4-[4-(3-Pyridin-2-yl-1H-pyrazol-4-yl)pyridin-2-yl]-phenyl}-tetrahydro-pyran-4-yl)amine] has a pIC50 [1] of no less than 6.00 and a pIC50 [2] of no less than 5.30.
`CN(Cc1ccc(-c2cc(-c3c[nH]nc3-c3ccccn3)ccn2)cc1)C1CCOCC1` [Example 33, N-Methyl-({4-[4-(3-pyridin-2-yl-1H-pyrazol-4-yl)pyridin-2-yl]benzyl}-tetrahydro-pyran-4-yl)-amine] was tested, and the pIC50 [1] was no less than 6.00 and the pIC50 [2] was no less than 5.30.
`CN1CCN(Cc2ccc(-c3cc(-c4c[nH]nc4-c4ccccn4)ccn3)cc2)CC1` [Example 36, (1-Methyl)-{4-[4-(3-pyridin-2-yl-1 H-pyrazol-4-yl)pyridin-2-yl]benzyl}-piperazine] was tested, and the pIC50 [1] was no less than 6.00 and the pIC50 [2] was no less than 5.30.
In the case of `CN1CCN(c2ccc(-c3cc(-c4c[nH]nc4-c4ccccn4)ccn3)cc2)CC1` [Example 41, (1-Methyl)-{4-[4-(3-pyridin-2-yl-1H-pyrazol-4-yl)pyridin-2-yl]-phenyl}-piperazine], the pIC50 [1] was no less than 6.00 and the pIC50 [2] was no less than 5.30.
With `c1ccc(-c2n[nH]cc2-c2ccnc(-c3ccc(CN4CCSCC4)cc3)c2)nc1` [Example 42, {4-[4(3-Pyridin-2-yl-1H-pyrazol-4-yl)pyridin-2-yl]benzyl}-thiomorpholine] the pIC50 [1] was no less than 6.00 and the pIC50 [2] was no less than 5.30.
